Article PMC12040169 (PLOS Biology, 2025)
This is one part of the list.

These compounds were tested on T1, CTL2-GFP (C. trachomatis L2/434/Bu, GFP-expressing). Details: bulk GFP, single well; 28.5 h, 10 µM; inhibitor.
T1 construct: L2/434/Bu, GFP-expressing
Parameters: species or system HeLa; Intracellular C. trachomatis growth in HeLa cells, bulk GFP fluorescence relative to DMSO

Row | Structure (SMILES) | % of control remaining [%]
1 | O=C(NCc1ccc(Cl)c(Cl)c1)N1CCCCC1CO (stereo not shown) [CBK156164] | 90.1856
2 | O=C(c1ccc(F)cc1)N1CCN(c2ccccn2)CC1 [CBK287795] | 107.829
3 | Cc1nn2c(=O)c(CCC(=O)O)c(C)[nH]c2c1-c1ccccc1 [CBK287011] | 143.912
4 | CCN(CC)c1ccc(C(=O)Cn2c(=O)n(S(=O)(=O)c3ccc4ccccc4c3)c3ccccc32)cc1 [CBK106505] | 128.697
5 | COc1cc(/C(CS(C)(=O)=O)=N\O)cc(OC)c1OC [CBK022984] | 117.048
6 | Cc1nnc(CN(CC2CCCO2)C2CCCC2)n1C1CC1 (stereo not shown) [CBK304147] | 113.035
7 | CN1CCN(C(=O)Cn2cccc(C(=O)Nc3ccc(F)cc3)c2=O)C(c2ccccc2)C1 (stereo not shown) [CBK286045] | 137.363
8 | Cc1ccn(CCNC(=O)c2[nH]c3c(Cl)cccc3c2C)n1 [CBK282608] | 133.585
9 | COc1cccc(C(=O)N2CCC(c3cc4ncccc4[nH]3)CC2)c1 [CBK283398] | 105.227
10 | CC(NS(=O)(=O)Cc1ccccc1Cl)C(=O)N1CCCCC1 (stereo not shown) [CBK304928] | 102.962
11 | CC(C)(C)c1ccc(OCC(O)Cn2c(CO)nc3ccccc32)cc1 (stereo not shown) [CBK293973] | 99.2978
12 | O=C(c1nccs1)C1CCN(C(=O)c2cccs2)CC1 [CBK284159] | 83.6794
13 | COC(=O)c1ccccc1NC(=O)COc1ccc(Br)c(C)c1 [CBK263152] | 115.254
14 | O=C(O)CCC(=O)N1N=C2C(=Cc3ccc(F)cc3)CCCC2C1c1ccc(F)cc1 (stereo not shown) [CBK296066] | 138.818
15 | CC(C)c1ccc(N2C(=O)N[C@@H]3CCN(C(=O)COc4ccccc4)[C@@H]3C2=O)cc1 [CBK289288] | 141.548
16 | COc1cc(CNc2cc(C(=O)O)ccc2C)cc(Br)c1OC [CBK269679] | 134.432
17 | COCc1nnc(NS(=O)(=O)c2ccc(C)cc2)s1 [CBK045523] | 128.261
18 | CCOC(=O)C1CCN(S(=O)(=O)c2ccc(NC(=O)N3CCCC3)cc2)CC1 [CBK269823] | 117.145
19 | CCCc1n[nH]c(Cc2c(Cl)cccc2Cl)c1C(=O)OCC [CBK113275] | 74.9612
20 | Cc1ccc(C23CC4CC(CC(NC(=O)NC(Cc5ccccc5)C(=O)O)(C4)C2)C3)cc1 (stereo not shown) [CBK267423] | 131.565
21 | CN(C)C(=O)c1cccc(-c2nccnc2NCc2cccc([N+](=O)[O-])c2)c1 [CBK036651] | 132.591
22 | Cc1nn(CC(=O)OC2CCCCC2)c(=O)c2cc3sccc3n12 [CBK284045] | 149.338
23 | COC(=O)c1cccc2c3c([nH]c12)CCCC3 [CBK000423] | 125.554
24 | Cc1cccnc1NC(=S)NCc1ccco1 [CBK268907] | 100.614
25 | O=C(O)CCCNS(=O)(=O)c1ccc(C2CCCCC2)cc1 [CBK299800] | 132.331
26 | O=S(=O)(Cc1ccccc1)Nc1nccnc1-c1cccs1 [CBK050766] | 116.197
27 | O=C(CCn1cccn1)N1CCC(c2cc3ncccc3[nH]2)CC1 [CBK284457] | 122.332

Row | Structure (SMILES) | % of control remaining [%]
28 | CC(=O)N1Cc2ccccc2OC2(CCCN(C(=O)C3CC3)C2)C1 (stereo not shown) [CBK284991] | 117.647
29 | N#C/C(=C/c1cn(CCC(N)=O)c2ccccc12)c1ccc2c(c1)OCO2 [CBK267319] | 143.632
30 | O=C(CC(C(=O)O)N1CCOCC1)Nc1ccc(Cl)cc1 (stereo not shown) [CBK267086] | 142.326
31 | CCn1cc(C(=O)O)c(=O)c2cc(F)c(N3CCN(C(=S)Nc4ccc5c(c4)OCO5)CC3)cc21 [CBK268027] | 132.821
32 | COc1cc(CN2CCN(S(=O)(=O)c3ccc(F)cc3)CC2)cc(OC)c1O [CBK264269G] | 133.92
33 | COC(=O)CCNc1n[nH]c(=O)[nH]c1=O [CBK217927] | 113.356
34 | CC(C)COc1ccccc1C(=O)NCCC(=O)O [CBK033507] | 106.753
35 | O=C(Cn1cnc(-c2noc(-c3cccnc3)n2)c1)Nc1ccc(Cl)cc1 [CBK287822] | 112.566
36 | CC1CC(C)CN(C(=O)c2ccc(-n3ccnc3)c(-n3cccc3)c2)C1 (stereo not shown) [CBK285372] | 127.012
37 | COc1ccc(CCCC(=O)Nc2cncc(OC3CCNCC3)n2)cc1OC [CBK028437T] | 102.876
38 | NS(=O)(=O)c1ccc(CNC(=O)c2cncc(-c3ccc(C(=O)N4CCOCC4)cc3)c2)cc1 [CBK158641] | 114.552
39 | COc1ccc2ccccc2c1CNc1ccc(N2CCOCC2)c(C(=O)O)c1 [CBK269376] | 135.285
40 | CS(=O)(=O)Nc1ccccc1C(=O)NCc1ccccn1 [CBK268494] | 137.426
41 | CCOc1cccc(-c2cn3ccnc3c(N(C)CCN(C)C)n2)c1 [CBK066569] | 177.496
42 | COc1cc(CNC(=O)c2cnoc2-c2ccc(Br)cc2)cc(OC)c1OC [CBK154893] | 105.982
43 | c1ccc(N2CCN(C3c4ccccc4Sc4ccccc43)CC2)cc1 [CBK066894] | 107.302
44 | COCC(=O)N[C@H]1CCN2C(=O)c3cc(-c4ccccc4F)ccc3NC(=O)[C@@H]2C1 [CBK289553] | 106.249
45 | Fc1cc(F)c(OCCCCOc2nccnc2N2CCNCC2)cc1F [CBK028624T] | 100.092
46 | CCNC(=O)NC1CC(C)(C)Cc2c1cnn2-c1ccc(OC)cc1 (stereo not shown) [CBK307313] | 125.964
47 | CCN1CCN(C(=O)C2CC(C)=C(C)CC2C(=O)O)CC1 (stereo not shown) [CBK270311] | 144.385
48 | CCC(=O)NC(=S)Nc1ccc(C(=O)N2CCCC2)cc1 [CBK288464] | 123.177
49 | O=C(NC(=O)C1CCN(CC2COc3ccccc3O2)CC1)Nc1ccccc1 (stereo not shown) [CBK035267] | 151.547
50 | Cc1nn(C)c(C)c1NC(=O)CN1CCN(c2ccccc2Cl)CC1 [CBK306058] | 104.629
51 | CC(Oc1cccc(C#N)c1)C(=O)NCC1(N2CCOCC2)CCSC1 (stereo not shown) [CBK305780] | 169.353
52 | Cc1nnc(N/N=C\c2ccco2)n1N [CBK028824C] | 76.0915
53 | O=C1NC2(CCNCC2)Oc2ccc(-c3cccc4ncccc34)cc21 [CBK083775T] | 117.279
54 | Cc1cc(NC(=O)CN2CCN(Cc3ccc(Cl)nc3)CC2)no1 [CBK305504] | 165.356

Looked up by structure from above:
Row | Structure (SMILES) | % of control remaining [%]
28 | CC(=O)N1Cc2ccccc2OC2(CCCN(C(=O)C3CC3)C2)C1 (stereo not shown) [CBK284991] | 117.647
37 | COc1ccc(CCCC(=O)Nc2cncc(OC3CCNCC3)n2)cc1OC [CBK028437T] | 102.876
40 | CS(=O)(=O)Nc1ccccc1C(=O)NCc1ccccn1 [CBK268494] | 137.426
50 | Cc1nn(C)c(C)c1NC(=O)CN1CCN(c2ccccc2Cl)CC1 [CBK306058] | 104.629
53 | O=C1NC2(CCNCC2)Oc2ccc(-c3cccc4ncccc34)cc21 [CBK083775T] | 117.279

Further compounds:

Row | Structure (SMILES) | % of control remaining [%]
55 | COCCN(C(=O)c1nc2cccnc2s1)C1CCS(=O)(=O)C1 (stereo not shown) [CBK304091] | 118.194
56 | C=CCN(C)C(=O)[C@H]1C[C@@H](O)[C@H](O)[C@@H]2N=C(Nc3ccc(Cl)cc3)S[C@@H]21 [CBK288946] | 131.848
57 | CN(C)C(=O)c1cn2cc(-c3cccs3)n(CC3CC3)c(=O)c2n1 [CBK307440] | 126.112
58 | Cc1ccc(-c2csc(NC(=O)c3ccccc3C(=O)O)n2)cc1 [CBK072083] | 106.762
59 | COCCCn1c(CCC(=O)O)ccc1-c1ccc(F)cc1 [CBK267886] | 109.519
60 | O=S(=O)(Nc1nccnc1N1CCN(c2cnccn2)CC1)c1ccc(Cl)cc1 [CBK049664] | 154.142
61 | O=c1[nH]c(N2CCC3(CC2)OCCO3)nc2c(-c3ccccc3Cl)csc12 [CBK291128] | 78.6965
62 | CSc1nsc(SCC(=O)Nc2ccc(OC(C)=O)cc2)n1 [CBK268948] | 160.81
63 | C#CCNCCCOc1ccccc1Oc1ccccc1 [CBK017707C] | 120.375
64 | Cn1cc(CNCC2CCN(CCO)CC2)c(-c2cccnc2)n1 [CBK305153] | 94.4234
65 | NNS(=O)(=O)c1ccc(Oc2ccc([N+](=O)[O-])cc2)cc1 [CBK261669] | 111.768
66 | O=C(NCCn1nc(-c2ccco2)ccc1=O)C1CCCC1 [CBK283707] | 138.785
67 | CCOC(=O)c1cnc2c(C)cc(C)cc2c1NCCCN(C)C [CBK266021] | 217.078
68 | O=C1c2ccccc2C(=O)N1CCOc1nccnc1-c1cnn(Cc2ccccc2)c1 [CBK107089] | 126.156
69 | CCC(=O)Nc1ccc(C(=O)N2CCN(c3ccccc3)CC2)cc1 [CBK307425] | 138.271
70 | O=C(O)COc1ccc(C=C2C(=O)c3ccccc3C2=O)cc1Cl [CBK263857] | 100
71 | CCn1c(SCC(=O)O)nnc1-c1c[nH]c2ccccc12 [CBK287089] | 111.802
72 | COc1cc(F)cc(OC2CCNCC2)c1NC(=O)Cc1c[nH]c2ccccc12 [CBK050246T] | 101.933
73 | O=C(O)c1sc2ncccc2c1NS(=O)(=O)c1cc(Cl)sc1Cl [CBK050650] | 144.408
74 | Cc1ccc(Cc2cnc(NC(=O)NC3CCOC(C)(C)C3)s2)cc1F (stereo not shown) [CBK304139] | 96.2459
75 | CCCn1cc(CNC(=O)c2cccc(S(=O)(=O)N3CCCC3)c2)cn1 [CBK307095] | 71.3713
76 | CCCS(=O)(=O)NC[C@H]1C[C@@H]2CCN1C[C@@H]2c1cc(-c2ccccc2)nn1C [CBK289095] | 104.114
77 | O=C(O)COc1cccc2nsnc12 [CBK019749] | 124.738
78 | Clc1ccc(-n2ncc3c(NCc4ccccc4)ncnc32)cc1 [CBK287355] | 115.203
79 | c1cnc(N2CCCC2)c(OC2CCNC2)n1 (stereo not shown) [CBK115284] | 149.293
